Reference: US20260209348A1
Results are given in words; binding and its absence hold for the method and conditions named. Some binding calls cover weakened binding; strength is not graded here.

Sequences of proteins named here, by UniProt entry; tags and fusion partners are left off. A change or cut given only in a name is not applied to a line headed by its entry.
UniProt Q01974: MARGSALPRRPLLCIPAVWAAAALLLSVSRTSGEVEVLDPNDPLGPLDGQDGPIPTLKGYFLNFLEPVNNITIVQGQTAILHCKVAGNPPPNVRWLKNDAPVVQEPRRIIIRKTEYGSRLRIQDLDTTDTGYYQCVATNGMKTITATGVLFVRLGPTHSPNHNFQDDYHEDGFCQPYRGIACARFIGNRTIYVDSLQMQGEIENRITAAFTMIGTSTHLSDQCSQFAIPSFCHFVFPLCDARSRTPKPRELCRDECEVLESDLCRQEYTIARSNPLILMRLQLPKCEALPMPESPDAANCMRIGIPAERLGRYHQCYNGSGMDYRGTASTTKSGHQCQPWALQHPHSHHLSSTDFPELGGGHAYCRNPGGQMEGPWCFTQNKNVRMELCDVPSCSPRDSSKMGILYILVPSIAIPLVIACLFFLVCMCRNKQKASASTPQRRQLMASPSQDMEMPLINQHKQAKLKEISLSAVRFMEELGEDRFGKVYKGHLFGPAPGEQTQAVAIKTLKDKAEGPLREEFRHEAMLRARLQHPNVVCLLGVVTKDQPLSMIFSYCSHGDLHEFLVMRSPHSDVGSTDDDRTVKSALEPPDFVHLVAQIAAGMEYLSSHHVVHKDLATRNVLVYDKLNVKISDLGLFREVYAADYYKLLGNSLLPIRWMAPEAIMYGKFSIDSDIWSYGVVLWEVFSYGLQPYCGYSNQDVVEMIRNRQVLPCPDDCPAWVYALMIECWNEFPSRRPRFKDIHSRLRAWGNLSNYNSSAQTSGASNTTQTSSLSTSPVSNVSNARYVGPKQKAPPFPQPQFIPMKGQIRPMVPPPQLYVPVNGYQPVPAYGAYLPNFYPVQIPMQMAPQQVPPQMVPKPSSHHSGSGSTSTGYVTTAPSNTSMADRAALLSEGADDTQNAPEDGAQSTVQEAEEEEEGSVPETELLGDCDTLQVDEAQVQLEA

Molecular target: human ROR2 (human) (UniProt Q01974)
Test: ELISA, scFv clones

| binding | Binder |
| --- | --- |
| binds | h6E6-048 scFv clone (scFv, V domains shown) VH: EVQLVESGGGLVKPGGSLRLSCAASGFTFSNYGVSWVRQAPGKGLEWVSTISSGGGYTHYVQSVKGRFTISRDNAKNSLYLQMNSLRAEDTAVYYCARHPRDFSYALDYWGQGTTVTVSS VL: EIVMTQSPATLSVSPGERATLSCKASQDVGHYVAWYQQKPGQAPRLLIYWASTRHTGIPARFSGSGSGTEFTLTISSLQSEDFAVYYCQQYNIYPWTFGQGTKVEIK |
| binds | h6E6-068 scFv clone (scFv, V domains shown) VH: EVQLVESGGGLVKPGGSLRLSCAASGFTFSSYGISWVRQAPGKGLEWVSTISSGGGYTHYAHSVKGRFTISRDNAKNSLYLQMNSLRAEDTAVYYCARHPRDFSYALDYWGQGTTVTVSS VL: EIVMTQSPATLSVSPGERATLSCKASQDVGHYLAWYQQKPGQAPRLLIYWASTRATGIPARFSGSGSGTEFTLTISSLQSEDFAVYYCQQYNIYPWTFGQGTKVEIK |
| binds | h6E6-063 scFv clone (scFv, V domains shown) VH: EVQLVESGGGLVKPGGSLRLSCAASGFTFSAYGTSWVRQAPGKGLEWVSTISSGGGYTYYAASVKGRFTISRDNAKNSLYLQMNSLRAEDTAVYYCARHPRDFSYAIDYWGQGTTVTVSS VL: EIVMTQSPATLSVSPGERATLSCRASQDVGHYLAWYQQKPGQAPRLLIYWASTRATGIPARFSGSGSGTEFTLTISSLQSEDFAVYYCQQYNIYPWTFGQGTKVEIK |
| binds | h6E6-065 scFv clone (scFv, V domains shown) VH: EVQLVESGGGLVKPGGSLRLSCAASGFTFSGYGMSWVRQAPGKGLEWVSTISSGGGYTHYVDSVKGRFTISRDNAKNSLYLQMNSLRAEDTAVYYCARHPRDFSYALDYWGQGTTVTVSS VL: EIVMTQSPATLSVSPGERATLSCKASQDVGHYLAWYQQKPGQAPRLLIYWASTRATGIPARFSGSGSGTEFTLTISSLQSEDFAVYYCQQYNIYPWTFGQGTKVEIK |
| binds | h6E6-052 scFv clone (scFv, V domains shown) VH: EVQLVESGGGLVKPGGSLRLSCAASGFTFSHYGTSWVRQAPGKGLEWVSTISSGGGYTHYAESVKGRFTISRDNAKNSLYLQMNSLRAEDTAVYYCARHPRDFSYAIDYWGQGTTVTVSS VL: EIVMTQSPATLSVSPGERATLSCKASQDVGHYLAWYQQKPGQAPRLLIYWASTRATGIPARFSGSGSGTEFTLTISSLQSEDFAVYYCQQYNIYPWTFGQGTKVEIK |
| binds | h6E6-055 scFv clone (scFv, V domains shown) VH: EVQLVESGGGLVKPGGSLRLSCAASGFTFSQYGHSWVRQAPGKGLEWVSTISSGGGYTHYAESVKGRFTISRDNAKNSLYLQMNSLRAEDTAVYYCARHPRDFSYAQDYWGQGTTVTVSS VL: EIVMTQSPATLSVSPGERATLSCKASQDVGHYLAWYQQKPGQAPRLLIYWASTRATGIPARFSGSGSGTEFTLTISSLQSEDFAVYYCQQYNIYPWTFGQGTKVEIK |
| binds | h6E6-069 scFv clone (scFv, V domains shown) VH: EVQLVESGGGLVKPGGSLRLSCAASGFTFSKYGVSWVRQAPGKGLEWVSTISSGGGYTHYVESVKGRFTISRDNAKNSLYLQMNSLRAEDTAVYYCARHPRDFSYAMDYWGQGTTVTVSS VL: EIVMTQSPATLSVSPGERATLSCKASQDVGHYLAWYQQKPGQAPRLLIYWASTRATGIPARFSGSGSGTEFTLTISSLQSEDFAVYYCQQYNIYPWTFGQGTKVEIK |
| binds | h6E6-059 scFv clone (scFv, V domains shown) VH: EVQLVESGGGLVKPGGSLRLSCAASGFTFSGYGLSWVRQAPGKGLEWVSTISSGGGYTHYAPSVKGRFTISRDNAKNSLYLQMNSLRAEDTAVYYCARHPRDFSYAFDYWGQGTTVTVSS VL: EIVMTQSPATLSVSPGERATLSCKASQDVGHYLAWYQQKPGQAPRLLIYWASTRATGIPARFSGSGSGTEFTLTISSLQSEDFAVYYCQQYNIYPWTFGQGTKVEIK |
| binds | h6E6-053 scFv clone (scFv, V domains shown) VH: EVQLVESGGGLVKPGGSLRLSCAASGFTFSKYGVSWVRQAPGKGLEWVSTISSGGGYTHYVDSVKGRFTISRDNAKNSLYLQMNSLRAEDTAVYYCARHPRDFSYAHDYWGQGTTVTVSS VL: EIVMTQSPATLSVSPGERATLSCKASQDVGHYVAWYQQKPGQAPRLLIYWASTRHTGIPARFSGSGSGTEFTLTISSLKSEDFAVYYCQQYNIYPWTFGQGTKVEIK |

More lines, now with the values behind:

| Binder | binding |
| --- | --- |
| h6E6-064 scFv clone (scFv, V domains shown) VH: EVQLVESGGGLVKPGGSLRLSCAASGFTFSHYGISWVRQAPGKGLEWVSSISSGGGYTHYAESVKGRFTISRDNAKNSLYLQMNSLRAEDTAVYYCARHPRDFSYAMDYWGQGTTVTVSS VL: EIVMTQSPATLSVSPGERATLSCRASQDVGHYVAWYQQKPGQAPRLLIYWASTRATGIPARFSGSGSGTEFTLTISSLQSEDFAVYYCQQYNIYPWTFGQGTKVEIK | binds |
| h6E6-050 scFv clone (scFv, V domains shown) VH: EVQLVESGGGLVKPGGSLRLSCAASGFTFSRYGMSWVRQAPGKGLEWVSTISSGGGYTHYVDSVKGRFTISRDNAKNSLYLQMNSLRAEDTAVYYCARHPRDFSYAHDYWGQGTTVTVSS VL: EIVMTQSPATLSVSPGERATLSCKASQDVGHYLAWYQQKPGQAPRLLIYWASTRATGIPARFSGSGSGTEFTLTISSLQSEDFAVYYCQQYNIYPWTFGQGTKVEIK | binds |
| h6E6-051 scFv clone (scFv, V domains shown) VH: EVQLVESGGGLVKPGGSLRLSCAASGFTFSNYGMSWVRQAPGKGLEWVSTISSGGGYTHYVDSVKGRFTISRDNAKNSLYLQMNSLRAEDTAVYYCARHPRDFSYALDYWGQGTTVTVSS VL: EIVMTQSPATLSVSPGERATLSCKASQDVGHYVAWYQQKPGQAPRLLIYWASTRATGIPARFSGSGSGTEFTLTISSLQSEDFAVYYCQQYNIYPWTFGQGTKVEIK | binds |
| h6E6-049 scFv clone (scFv, V domains shown) VH: EVQLVESGGGLVKPGGSLRLSCAASGFTFSNYGMSWVRQAPGKGLEWVSSISSGGGYTHYAESVKGRFTISRDNAKNSLYLQMNSLRAEDTAVYYCARHPRDFSYAMDYWGQGTTVTVSS VL: EIVMTQSPATLSVSPGERATLSCKASQDVGHYVAWYQQKPGQAPRLLIYWASTRATGIPARFSGSGSGTEFTLTISSLQSEDFAVYYCQQYNIYPWTFGQGTKVEIK | binds |
| h6E6-066 scFv clone (scFv, V domains shown) VH: EVQLVESGGGLVKPGGSLRLSCAASGFTFSAYGSSWVRQAPGKGLEWVSTISSGGGYTHYAPSVKGRFTISRDNAKNSLYLQMNSLRAEDTAVYYCARHPRDFSYAHDYWGQGTTVTVSS VL: EIVMTQSPATLSVSPGERATLSCKASQDVGHYVAWYQQKPGQAPRLLIYWASTRHTGIPARFSGSGSGTEFTLTISSLQSEDFAVYYCQQYNIYPWTFGQGTKVEIK | binds |
| h6E6-067 scFv clone (scFv, V domains shown) VH: EVQLVESGGGLVKPGGSLRLSCAASGFTFSHYGASWVRQAPGKGLEWVSTISSGGGYTHYAGSVKGRFTISRDNAKNSLYLQMNSLRAEDTAVYYCARHPRDFSYAFDYWGQGTTVTVSS VL: EIVMTQSPATLSVSPGERATLSCKASQDVGHYLAWYQQKPGQAPRLLIYWASTRATGIPARFSGSGSGTEFTLTISSLQSEDFAVYYCQQYNIYPWTFGQGTKVEIK | binds |
| h6E6-057 scFv clone (scFv, V domains shown) VH: EVQLVESGGGLVKPGGSLRLSCAASGFTFSHYGVSWVRQAPGKGLEWVSTISSGGGYTHYVASVKGRFTISRDNAKNSLYLQMNSLRAEDTAVYYCARHPRDFSYALDYWGQGTTVTVSS VL: EIVMTQSPATLSVSPGERATLSCKASQDVGHYVAWYQQKPGQAPRLLIYWASTRATGIPARFSGSGSGTEFTLTISSLQSEDFAVYYCQQYNIYPWAFGQGTKVEIK | binds |
| h6E6-060 scFv clone (scFv, V domains shown) VH: EVQLVESGGGLVKPGGSLRLSCAASGFTFSRYGLSWVRQAPGKGLEWVSTISSGGGYTHYAASVKGRFTISRDNAKNSLYLQMNSLRAEDTAVYYCARHPRDFSYAMDYWGQGTTVTVSS VL: EIVMTQSPATLSVSPGERATLSCRASQDVGHYLAWYQQKPGQAPRLLIYWASTRATGIPARFSGSGSGTEFTLTISSLQSEDFAVYYCQQYNIYPWTFGQGTKVEIK | binds |
| h6E6-062 scFv clone (scFv, V domains shown) VH: EVQLVESGGGLVKPGGSLRLSCAASGFTFSSYGHSWVRQAPGKGLEWVSTISSGGGYTYYAESVKGRFTISRDNAKNSLYLQMNSLRAEDTAVYYCARHPRDFSYAHDYWGQGTTVTVSS VL: EIVMTQSPATLSVSPGERATLSCKASQDVGHYLAWYQQKPGQAPRLLIYWASTRATGIPARFSGSGSGTEFTLTISSLQSEDFAVYYCQQYNIYPWTFGQGTKVEIK | binds |
| h6E6-058 scFv clone (scFv, V domains shown) VH: EVQLVESGGGLVKPGGSLRLSCAASGFTFSVYGLSWVRQAPGKGLEWVSTISSGGGYTQYAPSVKGRFTISRDNAKNSLYLQMNSLRAEDTAVYYCARHPRDFSYAFDYWGQGTTVTVSS VL: EIVMTQSPATLSVSPGERATLSCKASQDVGHYLAWYQQKPGQAPRLLIYWASTRATGIPARFSGSGSGTEFTLTISSLQSEDFAVYYCQQYNIYPWTFGQGTKVEIK | binds |
| h6E6-061 scFv clone (scFv, V domains shown) VH: EVQLVESGGGLVKPGGSLRLSCAASGFTFSNYGQSWVRQAPGKGLEWVSTISSGGGYTHYAPSVKGRFTISRDNAKNSLYLQMNSLRAEDTAVYYCARHPRDFSYAFDYWGQGTTVTVSS VL: EIVMTQSPATLSVSPGERATLSCRASQDVGHYVAWYQQKPGQAPRLLIYWASTRATGIPARFSGSGSGTEFTLTISSLQSEDFAVYYCQQYNIYPWTFGQGTKVEIK | binds |
| h6E6-054 scFv clone (scFv, V domains shown) VH: EVQLVESGGGLVKPGGSLRLSCAASGFTFSNYGVSWVRQAPGKGLEWVSTISSGGGYTHYVTSVKGRFTISRDNAKNSLYLQMNSLRAEDTAVYYCARHPRDFSYALDYWGQGTTVTVSS VL: EIVMTQSPATLSVSPGERATLSCKASQDVGHYVAWYQQKPGQAPRLLIYWASTRATGIPARFSGSGSGTEFTLTISSLQSEDFAVYYCQQYNIYPWTFGQGTKVEIK | binds |
| h6E6-056 scFv clone (scFv, V domains shown) VH: EVQLVESGGGLVKPGGSLRLSCAASGFTFSKYGTSWVRQAPGKGLEWVSTISSGGGYTHYAPSVKGRFTISRDNAKNSLYLQMNSLRAEDTAVYYCARHPRDFSYAQDYWGQGTTVTVSS VL: EIVMTQSPATLSVSPGERATLSCRASQDVGHYVAWYQQKPGQAPRLLIYWASTRATGIPARFSGSGSGTEFTLTISSLQSEDFAVYYCQQYNIYPWTFGQGTKVEIK | binds |
